Laboratory results: PubChem BioAssay AID1053208 (Peter MacCallum Cancer Centre, 2014)
Aim: 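Genes whose silencing cuts survival of bone tumour cells only with doxorubicin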 (primary screen). Cell system: mouse osteosarcoma cells, early-passage culture from an engineered mouse model of fibroblastic bone tumour. Reagents: siRNA pool against mouse genes, 40 nM. Timing: about 120 h (48 h before drug, then 72 h with drug). Challenge: doxorubicin 100 nM for 72 h, roughly 30-40% inhibitory dose. Detection: 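Luminescent ATP signal taken as viability with or without 100 nM doxorubicin for 72 h; mean of two wells set against non-targeting siRNA and turned into robust z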. Direction: viability z-score with doxorubicin and doxorubicin viability vs non-targeting: higher = more viable cells under doxorubicin; viability z-score without drug: higher = more viable cells with knock-down alone; z-score of drug to no-drug ratio: higher = less drug sensitisation by knock-down. Hit rule: 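a pool counts as active when its viability z-score with doxorubicin is -2 or below and its z-score without drug lies between -2 and 2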.
Shown is an unselected part of about 17,000 reagents. Of all reagents, 788 (4.7%) got an active call. 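Calls rest on z-score classes alone; an extra cut-off of viability at most 70% of control was not applied to them.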 A number with no mark means an inactive call.

gene | combined z-score class | viability z-score with doxorubicin | viability z-score without drug | z-score of drug to no-drug ratio | doxorubicin viability vs non-targeting
Extl3 | no change with or without drug | 0.45 | 0.51 | 0.22 | 0.98
Ptpn2 | high cell count with doxorubicin only | 2.02 | -0.34 | 2.47 | 1.12
Bbs4 | low cell count with doxorubicin only (active) | -2.36 | -0.51 | -2.14 | 0.73
Nsd2 | no change with or without drug | -1.35 | -0.84 | -0.79 | 0.82
Sirt1 | no change with or without drug | -0.45 | -1.52 | 0.79 | 0.9
Sh3gl1 | no change with or without drug | -0.9 | -1.18 | 0 | 0.86
Or8b36 | no change with or without drug | -0.45 | -0.17 | -0.22 | 0.9
Vps33b | no change with or without drug | -1.12 | 0.67 | -1.46 | 0.84
H2-T24 | no change with or without drug | -0.45 | 0.17 | -0.45 | 0.9
St3gal3 | no change with or without drug | 0 | -0.17 | 0.22 | 0.94
Or10c1 | no change with or without drug | -1.8 | -1.18 | -1.01 | 0.78
Ostf1 | no change with or without drug | 1.8 | 0.51 | 1.57 | 1.1
Nudt7 | no change with or without drug | 1.69 | -0.17 | 2.02 | 1.09
Myoc | no change with or without drug | 0.22 | -0.17 | 0.45 | 0.96
Idua | no change with or without drug | -0.34 | 0.17 | -0.34 | 0.91
Hagh | no change with or without drug | -0.67 | -0.67 | -0.11 | 0.88
Bckdk | no change with or without drug | -0.34 | -0.17 | -0.11 | 0.91
Rap1a | no change with or without drug | 1.57 | 0.51 | 1.35 | 1.08
Pax7 | no change with or without drug | -0.34 | 0 | -0.22 | 0.91
Dhh | no change with or without drug | 0.45 | 0.17 | 0.45 | 0.98
Rbbp6 | no change with or without drug | -0.45 | -0.51 | 0 | 0.9
Fbxl22 | no change with or without drug | 1.12 | 0.34 | 1.01 | 1.04
F11r | no change with or without drug | 0.45 | 0.17 | 0.45 | 0.98
Sp2 | no change with or without drug | 0.67 | 0.51 | 0.45 | 1
Letm1 | no change with or without drug | -1.35 | -0.84 | -0.79 | 0.82
Eif3k | low cell count with and without drug | -7.19 | -6.24 | -5.17 | 0.3
Eps8l2 | no change with or without drug | -1.91 | -0.17 | -1.8 | 0.77
Osbpl5 | no change with or without drug | -1.12 | -0.67 | -0.67 | 0.84
Or5p81 | no change with or without drug | -0.67 | -0.17 | -0.45 | 0.88
Fam174a | no change with or without drug | -0.67 | -0.17 | -0.45 | 0.88
Fbxo45 | no change with or without drug | -0.11 | -0.17 | 0.11 | 0.93
Or4c115 | no change with or without drug | 1.35 | 0.17 | 1.35 | 1.06
Or4k40 | no change with or without drug | -0.11 | -0.51 | 0.34 | 0.93
Anp32a | no change with or without drug | 0 | -0.51 | 0.45 | 0.94
Slc4a2 | low cell count with doxorubicin only (active) | -2.25 | 0.34 | -2.47 | 0.74
Kif3c | no change with or without drug | -0.67 | 0 | -0.56 | 0.88
Kcnv1 | no change with or without drug | 1.24 | 0.51 | 1.01 | 1.05
Mr1 | no change with or without drug | 0 | 0.51 | -0.22 | 0.94
Pcdhb12 | low cell count with doxorubicin only (active) | -2.59 | -1.52 | -1.69 | 0.71
Dnaaf1 | high cell count without drug only | 1.35 | 4.05 | -1.01 | 1.06
Saa3 | no change with or without drug | -0.22 | 0.51 | -0.45 | 0.92
Ccdc202 | low cell count with doxorubicin only (active) | -2.25 | -0.67 | -1.91 | 0.74
Vmn1r30 | no change with or without drug | -0.67 | -1.01 | 0.11 | 0.88
Or6c219 | no change with or without drug | 0.67 | 0 | 0.79 | 1
Zfp354a | no change with or without drug | 0.9 | 1.01 | 0.34 | 1.02
Pla2g2f | low cell count with doxorubicin only (active) | -2.7 | 0.17 | -2.81 | 0.7
Saxo6 | no change with or without drug | -0.45 | 1.18 | -1.12 | 0.9
H2ac1 | no change with or without drug | -0.45 | 0 | -0.34 | 0.9
Bud23 | no change with or without drug | 1.12 | 0.51 | 0.9 | 1.04
Znf41-ps | high cell count without drug only | -0.9 | 2.87 | -2.36 | 0.86
